Measured values published in the supplement of paper PMC6078165.

Test system: HCC1143
Assay: relative JC-1 red fluorescence (viability) vs pre-drug, coculture with fibroblast (fraction); higher = more viable cancer cells
Details: 1 µM
Method: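 JC-1 labelled TNBC cells cocultured 1:1 (1,500 cells each) with CellTrace Violet stained primary or stromal fibroblasts in 384-well plates in FluoroBrite medium, treated with one of 42 anticancer drugs at 0.1, 1, 10 or 100 uM. JC-1 red fluorescence (mitochondrial integrity in cancer cells only) was read by plate reader every 8 h for 72 h. Values are normalised to each well's pre-drug value. The stock of one drug was tenfold lower, so its dose labels may be too high.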

C[C@]12CC[C@@H]3c4ccc(O)cc4C[C@@H](CCCCCCCCC[S+]([O-])CCCC(F)(F)C(F)(F)F)[C@H]3[C@@H]1CC[C@@H]2O (some centres undefined) [Fulvestrant]
relative JC-1 red fluorescence
Details	8 h	16 h	24 h	32 h	40 h	48 h	56 h	64 h	72 h
coculture fibroblast: C12385	0.848	0.832	0.792	0.737	0.673	0.639	0.605	0.569	0.546
coculture fibroblast: H6013	0.73	0.667	0.629	0.621	0.548	0.535	0.498	0.474	0.449
coculture fibroblast: H6019	0.7885	0.744	0.718	0.673	0.648	0.634	0.584	0.5415	0.509
coculture fibroblast: H6076	0.80557	0.78	0.749	0.7101	0.666	0.652	0.627	0.613	0.626
coculture fibroblast: H6231	0.7946	0.7731	0.699	0.591	0.609	0.577	0.533	0.498	0.477
coculture fibroblast: HADF	0.738	0.695	0.669	0.674	0.586	0.56	0.531	0.507	0.499
coculture fibroblast: HCFa	0.777	0.711	0.665	0.641	0.558	0.532	0.493	0.462	0.444
coculture fibroblast: HCPF	0.78223	0.768	0.749	0.70691	0.701	0.678	0.653	0.6267	0.6256
coculture fibroblast: HHSteC	0.867	0.792	0.748	0.7134	0.62	0.586	0.537	0.498	0.462
coculture fibroblast: HMF	0.808	0.8244	0.78994	0.713	0.699	0.67	0.639	0.613	0.601
coculture fibroblast: HPFa	0.8938	0.838	0.798	0.696	0.64	0.605	0.545	0.502	0.459
coculture fibroblast: HUF	0.8512	0.79	0.755	0.689	0.649	0.622	0.574	0.548	0.514
coculture fibroblast: Hs5	0.833	0.845	0.802	0.776	0.701	0.675	0.646	0.624	0.606
coculture fibroblast: Hs27A	0.7459	0.704	0.675	0.715	0.575	0.555	0.512	0.476	0.464
coculture fibroblast: Hs343T	0.791	0.812	0.751	0.661	0.629	0.598	0.554	0.534	0.514
coculture fibroblast: WS1	0.81572	0.7667	0.744	0.69	0.651	0.63	0.597	0.577	0.558

The reference is the same well before dosing, and untreated signal decays as well.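 Labels refer to human fibroblasts, largely primary: uterine (C12385, HUF), lung (H6013), bone (Hs27A), adrenal (HADF), skin (WS1), plus mammary HMF and breast cancer-associated Hs343T. Cancer lines are basal-like or mesenchymal-like triple-negative breast cancer. The paper counts as hits responses shifting over 3x the replicate standard deviation. The tissue of the other fibroblasts is not given here.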
